Reference: paper doi:10.1101/2024.02.28.582498
These are yes or no findings as the source states them, for the method shown. Binding seen in cells or lysates may run through a third protein. Binding can be weak; no strength is given.

By UniProt entry, the sequences of proteins in these tests, tags left out.
UniProt P0CY32: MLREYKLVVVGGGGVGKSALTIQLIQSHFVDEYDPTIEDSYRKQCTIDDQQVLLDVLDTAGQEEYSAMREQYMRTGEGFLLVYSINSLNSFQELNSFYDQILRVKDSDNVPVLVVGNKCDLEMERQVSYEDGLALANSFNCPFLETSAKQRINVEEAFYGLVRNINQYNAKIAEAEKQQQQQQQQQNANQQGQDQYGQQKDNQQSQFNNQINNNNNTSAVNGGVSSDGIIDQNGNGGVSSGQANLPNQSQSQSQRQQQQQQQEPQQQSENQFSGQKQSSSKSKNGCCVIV

How the values were obtained:
[1] = molecular target: CaGpi2-6x-His (C. albicans GPI-GnT subunit Gpi2, His6 at its C-terminus) (C. albicans) (UniProt Q5A6L6); assay: pull-down
[2] = molecular target: CaGpi2-6x-His (C. albicans GPI-GnT subunit Gpi2, His6 at its C-terminus) (C. albicans) (UniProt Q5A6L6); assay: FRET or BRET

## CaRas1 (from UniProt P0CY32 1-290)
[1]
  binding: binds
[2]
  binding: binds
